PMC7037472
Results are given in words; binding and its absence hold for the method and conditions named. In cells and extracts the contact can be indirect. A yes stands for co-enrichment or nearness to the bait. Other partners may have been found.

B1: CATALASE 3 (enzyme, UniProt Q42547 1-492)
chain: MDPYKYRPSSAYNAPFYTTNGGAPVSNNISSLTIGERGPVLLEDYHLIEKVANFTRERIPERVVHARGISAKGFFEVTHDISNLTCADFLRAPGVQTPVIVRFSTVVHERASPETMRDIRGFAVKFYTREGNFDLVGNNTPVFFIRDGIQFPDVVHALKPNPKTNIQEYWRILDYMSHLPESLLTWCWMFDDVGIPQDYRHMEGFGVHTYTLIAKSGKVLFVKFHWKPTCGIKNLTDEEAKVVGGANHSHATKDLHDAIASGNYPEWKLFIQTMDPADEDKFDFDPLDVTKIWPEDILPLQPVGRLVLNRTIDNFFNETEQLAFNPGLVVPGIYYSDDKLLQCRIFAYGDTQRHRLGPNYLQLPVNAPKCAHHNNHHEGFMNFMHRDEEINYYPSKFDPVRCAEKVPTPTNSYTGIRTKCVIKKENNFKQAGDRYRSWAPDRQDRFVKRWVEILSEPRLTHEIRGIWISYWSQADRSLGQKLASRLNVRPSI
B2: 2-CYS PEROXIREDOXIN BAS1-LIKE PROTEIN (enzyme, UniProt Q9C5R8 73-273)
chain: KAQADDLPLVGNKAPDFEAEAVFDQEFIKVKLSEYIGKKYVILFFYPLDFTFVCPTEITAFSDRYEEFEKLNTEVLGVSVDSVFSHLAWVQTDRKSGGLGDLNYPLVSDITKSISKSFGVLIPDQGIALRGLFIIDKEGVIQHSTINNLGIGRSVDETMRTLQALQYVQENPDEVCPAGWKPGEKSMKPDPKLSKEYFSAI

Biological target: ThTrx5 fusion protein containing the glutathione-S-transferase (GST) tag (Tamarix hispida)
Test: affinity purification with mass spectrometry; ThTrx5 GST fusion protein bound to a nickel column (nickel agarose resin beads); about 50 ug total protein of wild-type or ThTrx5 transgenic Arabidopsis leaves (150 mmol/L NaCl, 3 h) incubated 4 h at 4 °C; washed 5 times; buffer 50 mM Tris, 100 mM NaCl, 0.1% Tween-20, 1 mM PMSF, 1 mM DTT, 500 mM imidazole; differential SDS-PAGE bands excised, PMF and MS/MS, SwissProt 57.15; only the target purified

| Binder | binding |
| --- | --- |
| B1 | binds |
| B2 | binds |
